According to article PMC5701377:
These are yes or no findings as the source states them, for the method shown. In cells and extracts the contact can be indirect. Some binding calls cover weakened binding; strength is not graded here.

By UniProt entry, the sequences of proteins in these tests, tags left out.
UniProt P01106: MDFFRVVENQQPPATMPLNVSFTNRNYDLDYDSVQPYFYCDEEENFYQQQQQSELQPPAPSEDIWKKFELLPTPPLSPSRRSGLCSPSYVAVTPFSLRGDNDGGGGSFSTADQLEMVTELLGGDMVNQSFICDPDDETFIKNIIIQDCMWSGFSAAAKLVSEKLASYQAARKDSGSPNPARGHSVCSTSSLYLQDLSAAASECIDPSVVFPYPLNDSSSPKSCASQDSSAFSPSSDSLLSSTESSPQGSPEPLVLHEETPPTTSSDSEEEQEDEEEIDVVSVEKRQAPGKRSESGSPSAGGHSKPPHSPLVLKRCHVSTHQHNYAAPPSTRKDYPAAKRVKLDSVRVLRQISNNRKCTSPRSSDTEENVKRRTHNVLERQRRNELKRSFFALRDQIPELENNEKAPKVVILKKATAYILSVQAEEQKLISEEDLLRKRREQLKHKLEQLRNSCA

Target: T1, inhibitor of differentiation and DNA binding-1 (ID1) (UniProt P41134)
T1 sequence: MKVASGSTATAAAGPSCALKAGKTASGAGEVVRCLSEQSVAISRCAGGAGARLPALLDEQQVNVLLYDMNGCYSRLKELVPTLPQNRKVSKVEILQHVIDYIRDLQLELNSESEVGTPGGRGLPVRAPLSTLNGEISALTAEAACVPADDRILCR
Test: co-IP; 5 x 10^5 cells lysed in 100 mM TRIS/HCl pH 7.5, 150 mM NaCl, 1 mM MgCl2, 0.25% NP-40; precleared with rabbit serum and Agarose A/G-protein beads; immunoprecipitated with ID1 antibody (1:500) overnight at 4 °C; immunoblotted for c-MYC; normal mouse IgG as control antibody

c-MYC (from UniProt P01106 1-454)
binding: binds
